Source: paper doi:10.1101/2024.07.11.602925
No constants are given. Whether binding was seen depends on the method and setting. Binding seen in cells or lysates may run through a third protein. Some entries that bind do so weakly or less than the wild type.

Sequences of proteins named here, by UniProt entry; tags and fusion partners are left off.
UniProt Q9NR12: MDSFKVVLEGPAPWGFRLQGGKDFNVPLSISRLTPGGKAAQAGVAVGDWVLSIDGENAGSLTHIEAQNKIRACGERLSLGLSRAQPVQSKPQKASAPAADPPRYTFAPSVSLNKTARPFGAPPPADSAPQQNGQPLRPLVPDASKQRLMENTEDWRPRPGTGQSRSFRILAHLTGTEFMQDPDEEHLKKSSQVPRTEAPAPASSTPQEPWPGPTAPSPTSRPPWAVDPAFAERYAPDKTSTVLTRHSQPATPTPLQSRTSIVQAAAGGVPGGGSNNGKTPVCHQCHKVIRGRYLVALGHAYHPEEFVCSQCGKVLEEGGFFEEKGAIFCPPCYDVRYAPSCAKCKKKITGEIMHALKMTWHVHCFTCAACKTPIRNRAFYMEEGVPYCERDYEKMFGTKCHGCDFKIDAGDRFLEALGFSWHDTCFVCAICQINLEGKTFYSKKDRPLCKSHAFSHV
UniProt Q9Y3P9: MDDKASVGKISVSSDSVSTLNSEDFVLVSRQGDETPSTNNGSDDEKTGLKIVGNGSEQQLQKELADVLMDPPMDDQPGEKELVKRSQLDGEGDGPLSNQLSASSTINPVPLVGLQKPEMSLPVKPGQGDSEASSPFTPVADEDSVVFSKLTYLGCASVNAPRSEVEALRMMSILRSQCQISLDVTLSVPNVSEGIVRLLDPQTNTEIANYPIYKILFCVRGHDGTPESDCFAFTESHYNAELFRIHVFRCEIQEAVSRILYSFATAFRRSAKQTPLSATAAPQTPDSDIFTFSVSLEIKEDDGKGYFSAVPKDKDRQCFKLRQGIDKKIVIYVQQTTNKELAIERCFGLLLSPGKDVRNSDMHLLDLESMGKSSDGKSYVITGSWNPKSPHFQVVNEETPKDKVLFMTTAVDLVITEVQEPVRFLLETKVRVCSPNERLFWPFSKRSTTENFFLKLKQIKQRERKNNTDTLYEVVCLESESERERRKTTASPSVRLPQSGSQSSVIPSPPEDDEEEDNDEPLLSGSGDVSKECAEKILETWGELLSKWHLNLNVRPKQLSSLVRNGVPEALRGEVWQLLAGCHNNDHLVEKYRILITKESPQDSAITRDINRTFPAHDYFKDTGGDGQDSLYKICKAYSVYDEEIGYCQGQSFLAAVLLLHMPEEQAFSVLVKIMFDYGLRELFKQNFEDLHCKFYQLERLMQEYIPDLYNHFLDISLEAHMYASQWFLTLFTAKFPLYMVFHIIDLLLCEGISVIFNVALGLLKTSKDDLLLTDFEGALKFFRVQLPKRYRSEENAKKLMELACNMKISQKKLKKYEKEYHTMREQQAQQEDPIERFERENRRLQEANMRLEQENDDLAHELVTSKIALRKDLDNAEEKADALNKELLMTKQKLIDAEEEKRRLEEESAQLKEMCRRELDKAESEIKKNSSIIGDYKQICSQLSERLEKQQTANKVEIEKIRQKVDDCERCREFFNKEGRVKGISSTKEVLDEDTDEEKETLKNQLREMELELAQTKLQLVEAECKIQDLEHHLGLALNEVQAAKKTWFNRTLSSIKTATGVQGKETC

Assays:
Experiment in all cases: pull-down
[1] = target: GST fused to the APP cytosolic tail mutant D664A (UniProt P05067)
[2] = target: GST fused to the APP cytosolic tail mutant FFE689-9AAA (UniProt P05067)
[3] = target: GST fused to the APP cytosolic tail mutant N684A (UniProt P05067)
[4] = target: GST fused to the APP cytosolic tail mutant Y682A (UniProt P05067)
[5] = target: GST fused to the APP cytosolic tail mutant Y687A (UniProt P05067)
[6] = target: GST fused to the WT cytosolic tail of APP (649-695) (UniProt P05067)

binding [1] | binding [2] | binding [3] | binding [4] | binding [5] | binding [6] | Molecule
binds | binds | binds | binds | binds | binds | PDLIM7 (from UniProt Q9NR12 1-457)
– | – | no binding | no binding | no binding | binds | RABGAP1 (from UniProt Q9Y3P9 1-1069)
no binding | – | no binding | no binding | no binding | binds | NUMB (protein, UniProt P49757 1-651) MNKLRQSFRRKKDVYVPEASRPHQWQTDEEGVRTGKCSFPVKYLGHVEVDESRGMHICEDAVKRLKAERKFFKGFFGKTGKKAVKAVLWVSADGLRVVDEKTKDLIVDQTIEKVSFCAPDRNFDRAFSYICRDGTTRRWICHCFMAVKDTGERLSHAVGCAFAACLERKQKREKECGVTATFDASRTTFTREGSFRVTTATEQAEREEIMKQMQDAKKAETDKIVVGSSVAPGNTAPSPSSPTSPTSDATTSLEMNNPHAIPRRHAPIEQLARQGSFRGFPALSQKMSPFKRQLSLRINELPSTMQRKTDFPIKNAVPEVEGEAESISSLCSQITNAFSTPEDPFSSAPMTKPVTVVAPQSPTFQANGTDSAFHVLAKPAHTALAPVAMPVRETNPWAHAPDAANKEIAATCSGTEWGQSSGAASPGLFQAGHRRTPSEADRWLEEVSKSVRAQQPQASAAPLQPVLQPPPPTAISQPASPFQGNAFLTSQPVPVGVVPALQPAFVPAQSYPVANGMPYPAPNVPVVGITPSQMVANVFGTAGHPQAAHPHQSPSLVRQQTFPHYEASSATTSPFFKPPAQHLNGSAAFNGVDDGRLASADRHTEVPTGTCPVDPFEAQWAALENKSKQRTNPSPTNPFSSDLQKTFEIEL
